Results reported in the supplement of paper PMC12819154, “High-throughput peptide-centric local stability assay extends protein–ligand identification to membrane proteins, tissues and bacteria” (Nature Structural & Molecular Biology, 2025).
Some of the results follow. Most values lie at the level of the controls, where differences are scatter.

Sequences of proteins named here, by UniProt entry; tags and fusion partners are left off. A change or cut given only in a name is not applied to a line headed by its entry.
UniProt Q9Y490: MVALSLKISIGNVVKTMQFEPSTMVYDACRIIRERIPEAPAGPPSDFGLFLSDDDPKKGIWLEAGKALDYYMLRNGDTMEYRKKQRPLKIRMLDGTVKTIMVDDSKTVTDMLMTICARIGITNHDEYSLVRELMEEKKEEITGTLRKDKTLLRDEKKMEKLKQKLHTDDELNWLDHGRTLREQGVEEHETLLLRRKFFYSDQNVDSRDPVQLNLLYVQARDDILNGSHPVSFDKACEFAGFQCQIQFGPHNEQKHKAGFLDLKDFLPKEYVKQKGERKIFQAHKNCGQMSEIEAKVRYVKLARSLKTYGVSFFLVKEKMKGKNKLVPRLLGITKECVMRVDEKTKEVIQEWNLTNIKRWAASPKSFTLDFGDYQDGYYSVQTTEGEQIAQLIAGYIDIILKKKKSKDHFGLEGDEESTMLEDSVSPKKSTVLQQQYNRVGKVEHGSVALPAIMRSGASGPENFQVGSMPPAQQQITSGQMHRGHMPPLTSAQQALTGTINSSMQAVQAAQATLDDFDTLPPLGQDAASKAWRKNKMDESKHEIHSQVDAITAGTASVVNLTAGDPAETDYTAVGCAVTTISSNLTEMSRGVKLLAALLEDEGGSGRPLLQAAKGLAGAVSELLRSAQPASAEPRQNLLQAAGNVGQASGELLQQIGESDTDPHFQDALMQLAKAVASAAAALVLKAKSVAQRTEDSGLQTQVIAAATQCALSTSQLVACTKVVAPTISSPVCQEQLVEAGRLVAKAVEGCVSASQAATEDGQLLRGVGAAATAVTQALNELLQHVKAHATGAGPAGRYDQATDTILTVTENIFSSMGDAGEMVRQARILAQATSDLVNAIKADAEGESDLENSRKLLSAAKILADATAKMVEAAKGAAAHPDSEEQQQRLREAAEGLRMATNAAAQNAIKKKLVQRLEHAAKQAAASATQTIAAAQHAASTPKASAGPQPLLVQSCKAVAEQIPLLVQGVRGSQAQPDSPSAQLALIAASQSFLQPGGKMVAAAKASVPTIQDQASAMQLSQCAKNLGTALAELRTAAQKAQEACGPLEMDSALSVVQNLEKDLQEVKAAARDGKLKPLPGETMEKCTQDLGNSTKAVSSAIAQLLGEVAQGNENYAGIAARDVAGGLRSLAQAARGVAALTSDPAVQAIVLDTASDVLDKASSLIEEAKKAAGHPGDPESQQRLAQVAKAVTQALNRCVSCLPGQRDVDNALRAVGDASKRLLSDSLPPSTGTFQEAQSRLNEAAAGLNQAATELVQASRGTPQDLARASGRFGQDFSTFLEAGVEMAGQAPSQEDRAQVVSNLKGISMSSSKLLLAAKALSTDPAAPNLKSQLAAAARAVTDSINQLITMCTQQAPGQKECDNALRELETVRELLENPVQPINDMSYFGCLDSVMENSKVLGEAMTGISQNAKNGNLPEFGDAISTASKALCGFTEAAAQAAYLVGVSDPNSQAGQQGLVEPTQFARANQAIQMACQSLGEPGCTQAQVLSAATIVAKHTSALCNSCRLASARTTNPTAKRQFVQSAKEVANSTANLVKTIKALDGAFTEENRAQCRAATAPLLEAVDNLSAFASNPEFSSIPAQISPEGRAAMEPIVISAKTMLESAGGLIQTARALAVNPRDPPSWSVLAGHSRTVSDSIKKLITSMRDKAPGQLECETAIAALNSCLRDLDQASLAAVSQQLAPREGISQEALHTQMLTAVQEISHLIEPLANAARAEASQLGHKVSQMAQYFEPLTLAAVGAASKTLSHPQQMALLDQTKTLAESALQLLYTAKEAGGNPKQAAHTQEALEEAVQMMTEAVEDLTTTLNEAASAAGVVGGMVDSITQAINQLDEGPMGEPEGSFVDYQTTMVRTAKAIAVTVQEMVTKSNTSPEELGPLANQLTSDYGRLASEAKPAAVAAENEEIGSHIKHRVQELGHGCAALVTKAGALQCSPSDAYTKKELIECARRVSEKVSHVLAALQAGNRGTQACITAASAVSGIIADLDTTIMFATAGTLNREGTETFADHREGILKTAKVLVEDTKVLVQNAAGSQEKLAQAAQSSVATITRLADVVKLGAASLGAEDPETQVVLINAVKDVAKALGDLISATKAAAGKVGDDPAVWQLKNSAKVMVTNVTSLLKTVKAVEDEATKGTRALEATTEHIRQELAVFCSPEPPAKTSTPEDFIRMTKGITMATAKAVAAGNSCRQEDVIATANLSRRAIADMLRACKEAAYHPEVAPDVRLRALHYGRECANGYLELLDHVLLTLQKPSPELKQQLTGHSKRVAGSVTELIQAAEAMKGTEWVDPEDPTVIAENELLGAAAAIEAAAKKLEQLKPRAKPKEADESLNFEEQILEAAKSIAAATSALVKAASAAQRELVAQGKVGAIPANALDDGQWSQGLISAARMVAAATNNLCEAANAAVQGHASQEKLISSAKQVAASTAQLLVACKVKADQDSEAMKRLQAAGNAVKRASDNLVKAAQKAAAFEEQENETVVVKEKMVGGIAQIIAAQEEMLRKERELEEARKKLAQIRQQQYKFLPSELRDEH
UniProt Q9Y3C6: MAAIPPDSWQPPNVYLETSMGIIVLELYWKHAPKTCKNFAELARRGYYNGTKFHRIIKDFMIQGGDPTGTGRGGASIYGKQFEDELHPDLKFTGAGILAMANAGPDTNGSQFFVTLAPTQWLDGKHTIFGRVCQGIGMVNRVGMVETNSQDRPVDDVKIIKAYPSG
UniProt Q9Y4I5: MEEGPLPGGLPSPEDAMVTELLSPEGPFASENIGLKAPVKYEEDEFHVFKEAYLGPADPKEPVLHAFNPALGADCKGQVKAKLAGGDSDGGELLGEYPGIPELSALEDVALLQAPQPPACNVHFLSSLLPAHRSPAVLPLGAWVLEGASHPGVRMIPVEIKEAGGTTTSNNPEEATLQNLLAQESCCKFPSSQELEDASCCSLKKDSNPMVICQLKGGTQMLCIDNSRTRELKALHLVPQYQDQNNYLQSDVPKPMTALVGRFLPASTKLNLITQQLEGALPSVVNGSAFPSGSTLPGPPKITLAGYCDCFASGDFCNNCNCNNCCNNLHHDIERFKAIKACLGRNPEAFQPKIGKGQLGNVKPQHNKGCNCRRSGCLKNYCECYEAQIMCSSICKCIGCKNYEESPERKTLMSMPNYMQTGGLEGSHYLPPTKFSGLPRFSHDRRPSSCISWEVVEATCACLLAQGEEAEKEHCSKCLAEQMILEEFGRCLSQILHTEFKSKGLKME
UniProt Q9Y5N5: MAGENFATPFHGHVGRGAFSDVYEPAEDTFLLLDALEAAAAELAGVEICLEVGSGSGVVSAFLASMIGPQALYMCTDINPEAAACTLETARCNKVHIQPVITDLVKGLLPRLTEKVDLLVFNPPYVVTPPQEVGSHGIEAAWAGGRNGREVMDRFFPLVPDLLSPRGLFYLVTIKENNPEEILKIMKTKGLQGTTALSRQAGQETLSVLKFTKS
UniProt Q9Y3A0: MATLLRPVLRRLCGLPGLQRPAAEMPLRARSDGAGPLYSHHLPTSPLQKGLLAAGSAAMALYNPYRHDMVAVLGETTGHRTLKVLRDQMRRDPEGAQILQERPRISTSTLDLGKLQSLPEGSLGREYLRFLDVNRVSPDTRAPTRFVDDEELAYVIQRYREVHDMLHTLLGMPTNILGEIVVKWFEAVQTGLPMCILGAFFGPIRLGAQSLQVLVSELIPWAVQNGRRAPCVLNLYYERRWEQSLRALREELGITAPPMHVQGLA
UniProt Q9Y5Z7: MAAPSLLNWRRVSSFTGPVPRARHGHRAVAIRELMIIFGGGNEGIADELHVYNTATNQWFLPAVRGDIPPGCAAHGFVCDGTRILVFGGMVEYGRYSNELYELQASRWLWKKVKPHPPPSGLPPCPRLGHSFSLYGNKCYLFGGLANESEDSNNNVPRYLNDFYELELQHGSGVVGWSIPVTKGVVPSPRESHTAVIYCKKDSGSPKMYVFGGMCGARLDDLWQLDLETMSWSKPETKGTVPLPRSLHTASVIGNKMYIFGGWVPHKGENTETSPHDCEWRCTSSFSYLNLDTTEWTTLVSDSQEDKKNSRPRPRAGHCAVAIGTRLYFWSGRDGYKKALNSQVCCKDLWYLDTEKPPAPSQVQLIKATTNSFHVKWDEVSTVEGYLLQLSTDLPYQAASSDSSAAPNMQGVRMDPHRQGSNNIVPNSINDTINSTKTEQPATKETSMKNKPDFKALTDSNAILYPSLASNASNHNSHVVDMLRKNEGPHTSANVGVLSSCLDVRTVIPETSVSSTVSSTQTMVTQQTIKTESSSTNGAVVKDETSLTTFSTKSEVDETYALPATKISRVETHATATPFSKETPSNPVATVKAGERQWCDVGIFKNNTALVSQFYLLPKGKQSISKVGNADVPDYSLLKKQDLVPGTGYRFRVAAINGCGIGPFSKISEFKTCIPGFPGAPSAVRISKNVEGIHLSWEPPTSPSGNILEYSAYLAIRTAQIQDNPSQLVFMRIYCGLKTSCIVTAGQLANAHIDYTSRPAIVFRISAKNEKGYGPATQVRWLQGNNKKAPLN
UniProt Q9Y320, whole entry: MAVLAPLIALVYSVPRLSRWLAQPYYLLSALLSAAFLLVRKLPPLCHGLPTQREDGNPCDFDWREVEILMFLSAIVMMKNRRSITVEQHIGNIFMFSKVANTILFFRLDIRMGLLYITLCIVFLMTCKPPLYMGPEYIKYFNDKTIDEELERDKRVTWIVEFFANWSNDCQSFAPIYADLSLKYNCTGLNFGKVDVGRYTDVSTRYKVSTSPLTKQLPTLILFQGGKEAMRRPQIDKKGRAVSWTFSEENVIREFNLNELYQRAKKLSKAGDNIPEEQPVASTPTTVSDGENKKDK
UniProt Q9Y3D6: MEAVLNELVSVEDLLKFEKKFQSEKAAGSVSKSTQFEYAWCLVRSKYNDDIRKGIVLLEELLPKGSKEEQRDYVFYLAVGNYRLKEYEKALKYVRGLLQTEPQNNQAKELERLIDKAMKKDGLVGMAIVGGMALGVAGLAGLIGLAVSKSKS
UniProt Q9Y4X5: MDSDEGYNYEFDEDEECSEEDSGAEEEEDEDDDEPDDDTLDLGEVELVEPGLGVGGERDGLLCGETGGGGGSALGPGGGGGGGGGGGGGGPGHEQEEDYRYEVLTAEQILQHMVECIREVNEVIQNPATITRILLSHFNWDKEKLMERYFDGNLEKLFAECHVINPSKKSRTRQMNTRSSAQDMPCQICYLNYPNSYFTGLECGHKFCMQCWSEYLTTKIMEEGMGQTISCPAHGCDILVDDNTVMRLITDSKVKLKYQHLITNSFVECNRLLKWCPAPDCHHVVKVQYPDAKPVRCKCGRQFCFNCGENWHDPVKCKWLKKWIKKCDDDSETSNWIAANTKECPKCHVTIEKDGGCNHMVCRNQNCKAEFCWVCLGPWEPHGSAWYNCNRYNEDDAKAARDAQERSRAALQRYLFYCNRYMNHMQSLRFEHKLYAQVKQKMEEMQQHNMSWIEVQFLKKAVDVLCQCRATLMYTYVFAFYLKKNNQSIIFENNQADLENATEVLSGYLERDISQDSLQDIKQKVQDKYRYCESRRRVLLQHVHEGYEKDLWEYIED
UniProt Q9Y2G2: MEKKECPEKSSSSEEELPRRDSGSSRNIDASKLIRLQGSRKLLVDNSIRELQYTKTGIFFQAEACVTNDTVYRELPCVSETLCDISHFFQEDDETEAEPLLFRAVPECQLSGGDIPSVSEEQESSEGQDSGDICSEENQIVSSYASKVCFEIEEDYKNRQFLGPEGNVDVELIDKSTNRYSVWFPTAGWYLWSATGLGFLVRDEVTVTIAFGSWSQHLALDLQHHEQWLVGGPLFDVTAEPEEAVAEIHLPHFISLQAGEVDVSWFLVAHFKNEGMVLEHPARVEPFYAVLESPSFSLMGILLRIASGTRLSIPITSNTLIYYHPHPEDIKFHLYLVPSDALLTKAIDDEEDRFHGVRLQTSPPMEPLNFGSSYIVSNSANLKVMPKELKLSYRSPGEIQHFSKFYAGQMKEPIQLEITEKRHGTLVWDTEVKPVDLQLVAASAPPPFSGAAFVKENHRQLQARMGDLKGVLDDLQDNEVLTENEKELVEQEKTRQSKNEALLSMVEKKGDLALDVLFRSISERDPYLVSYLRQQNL
UniProt Q9Y6W6: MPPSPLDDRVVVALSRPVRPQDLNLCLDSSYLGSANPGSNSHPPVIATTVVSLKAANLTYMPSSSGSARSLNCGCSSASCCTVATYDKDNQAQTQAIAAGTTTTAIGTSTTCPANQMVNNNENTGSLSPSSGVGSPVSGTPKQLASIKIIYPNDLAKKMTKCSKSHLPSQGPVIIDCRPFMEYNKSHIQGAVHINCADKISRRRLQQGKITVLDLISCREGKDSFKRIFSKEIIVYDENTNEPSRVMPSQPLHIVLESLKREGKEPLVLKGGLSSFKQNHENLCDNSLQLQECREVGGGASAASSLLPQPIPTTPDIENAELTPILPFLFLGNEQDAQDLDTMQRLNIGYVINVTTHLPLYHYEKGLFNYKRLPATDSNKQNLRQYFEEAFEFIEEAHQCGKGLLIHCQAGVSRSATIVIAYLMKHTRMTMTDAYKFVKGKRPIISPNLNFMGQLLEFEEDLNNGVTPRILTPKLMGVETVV

Compound: Cc1nc(Nc2ncc(C(=O)Nc3c(C)cccc3Cl)s2)cc(N2CCN(CCO)CC2)n1 [dasatinib]
Test: log2 fold change of tryptic peptide abundance, ligand vs vehicle (limited proteolysis) (log2 ratio); higher = more trypsin-susceptible (destabilized)
Details: ligand concentration: 5 uM; sample: K562 cleared lysate

Target | log2 fold change
MYH15 (peptide sequence: MKYENNVIQR, peptide start residue: 1385) (UniProt Q9Y2K3) | -0.628
IRS2 (peptide sequence: DGGGGGEFYGYMTMDRPLSHCGR, peptide start residue: 532) (UniProt Q9Y4H2) | 0.278
SALL2 (peptide sequence: QIHQMQMTEQICR, peptide start residue: 193) (UniProt Q9Y467) | 0.39
TLN1 (peptide sequence: ALGDLISATK, peptide start residue: 2090) (UniProt Q9Y490) | -0.101
PPIL1 (peptide sequence: IIKDFMIQGGDPTGTGR, peptide start residue: 56) (UniProt Q9Y3C6) | -0.241
MTO1 (peptide sequence: GMIVIGLETHPAGR, peptide start residue: 199) (UniProt Q9Y2Z2) | 0.225
TESMIN (peptide sequence: ACLGRNPEAFQPK, peptide start residue: 341) (UniProt Q9Y4I5) | 0.268
N6AMT1 (peptide sequence: GLQGTTALSR, peptide start residue: 190) (UniProt Q9Y5N5) | -0.238
BZW2 (peptide sequence: GKSVFLDQMK, peptide start residue: 390) (UniProt Q9Y6E2) | -0.445
FHOD1 (peptide sequence: FLENVAAAETEK, peptide start residue: 443) (UniProt Q9Y613) | -0.0563
RABGAP1 (peptide sequence: CREFFNK, peptide start residue: 972) (UniProt Q9Y3P9) | -0.583
AMDHD2 (peptide sequence: IVTLAPELGR, peptide start residue: 183) (UniProt Q9Y303) | -0.161
MED16 (peptide sequence: LHLGACPTEECKACTR, peptide start residue: 785) (UniProt Q9Y2X0) | -0.678
COQ4 (peptide sequence: LQSLPEGSLGR, peptide start residue: 115) (UniProt Q9Y3A0) | -0.265
USP15 (peptide sequence: TEDTEHVIIPVCLR, peptide start residue: 559) (UniProt Q9Y4E8) | 0.12
DDX49 (peptide sequence: SSNTFSIK, peptide start residue: 137) (UniProt Q9Y6V7) | -0.531
HCFC2 (peptide sequence: GYGPATQVR, peptide start residue: 1990) (UniProt Q9Y5Z7) | -0.232
ASB3 (peptide sequence: SVDVADNR, peptide start residue: 35) (UniProt Q9Y575) | 0.0725
UniProt Q9Y320 (peptide sequence: YNCTGLNFGKVDVGR, peptide start residue: 184) | 0.758
FIS1 (peptide sequence: SKYNDDIR, peptide start residue: 45) (UniProt Q9Y3D6) | -0.124
UniProt Q9Y2L5 (peptide sequence: QSAAQQGAFLR, peptide start residue: 634) | 0.143
ARIH1 (peptide sequence: VQYPDAKPVR, peptide start residue: 287) (UniProt Q9Y4X5) | 0.118
CARD8 (peptide sequence: ECPEKSSSSEEELPR, peptide start residue: 5) (UniProt Q9Y2G2) | 0.433
MAD1L1 (peptide sequence: FVVELQQR, peptide start residue: 337) (UniProt Q9Y6D9) | -0.0904
DDX52 (peptide sequence: EESLTER, peptide start residue: 75) (UniProt Q9Y2R4) | -0.174
TCAF1 (peptide sequence: LGETTLEEWKR, peptide start residue: 642) (UniProt Q9Y4C2) | 0.317
UniProt Q9Y6W6 (peptide sequence: EGKEPLVLK, peptide start residue: 262) | 0.313
HYOU1 (peptide sequence: TPVIVTLK, peptide start residue: 68) (UniProt Q9Y4L1) | 0.112

Looked up above:
Under log2 fold change, DDX49 (peptide sequence: SSNTFSIK, peptide start residue: 137) (UniProt Q9Y6V7) has -0.531
Under log2 fold change, MED16 (peptide sequence: LHLGACPTEECKACTR, peptide start residue: 785) (UniProt Q9Y2X0) has -0.678
